Results as given in publication PMC509306.
Results are given in words; binding and its absence hold for the method and conditions named. Binding calls can cover weak binding; strength is not graded here.

Chains of the proteins cited; added tags and fusions are not shown. Lines headed by an entry give the natural chain unless they say otherwise; changes in a name come on top.
UniProt P41546: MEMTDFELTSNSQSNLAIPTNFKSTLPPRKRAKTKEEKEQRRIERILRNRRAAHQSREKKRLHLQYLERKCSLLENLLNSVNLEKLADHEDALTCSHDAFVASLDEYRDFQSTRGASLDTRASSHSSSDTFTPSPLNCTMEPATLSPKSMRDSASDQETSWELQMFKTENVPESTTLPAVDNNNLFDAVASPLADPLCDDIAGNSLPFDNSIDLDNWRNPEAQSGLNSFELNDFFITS
UniProt P03069: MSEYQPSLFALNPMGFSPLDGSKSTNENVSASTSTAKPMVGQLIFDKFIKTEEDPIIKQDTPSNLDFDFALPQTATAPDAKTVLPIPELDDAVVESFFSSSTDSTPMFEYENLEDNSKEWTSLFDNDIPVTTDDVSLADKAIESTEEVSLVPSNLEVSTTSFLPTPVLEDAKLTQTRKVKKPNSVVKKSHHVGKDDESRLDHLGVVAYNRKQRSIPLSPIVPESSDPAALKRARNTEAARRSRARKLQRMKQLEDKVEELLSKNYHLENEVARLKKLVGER

Target: HA-tagged Hac1p (S. cerevisiae) (UniProt P41546)
Assay: native gel or EMSA; supershift: crude extracts of Tm-treated yeast expressing Gcn4p-myc and HA-Hac1p, incubated with 32P-labelled UPRE-1 or UPRE-2 oligos and with anti-myc, anti-HA or both; nondenaturing 5% polyacrylamide gel with 4% glycerol; the two proteins are seen together on the DNA

myc-tagged Gcn4p (from UniProt P03069 1-281)
binding: binds
